The other results are listed elsewhere or left out. Most values lie at the level of the controls, where differences are scatter.

Protein sequences, listed by entry. Tags and fused reporters are not part of them. Lines headed by an entry give the natural chain unless they say otherwise; changes in a name come on top.
UniProt Q8IXI1, whole entry, looked up: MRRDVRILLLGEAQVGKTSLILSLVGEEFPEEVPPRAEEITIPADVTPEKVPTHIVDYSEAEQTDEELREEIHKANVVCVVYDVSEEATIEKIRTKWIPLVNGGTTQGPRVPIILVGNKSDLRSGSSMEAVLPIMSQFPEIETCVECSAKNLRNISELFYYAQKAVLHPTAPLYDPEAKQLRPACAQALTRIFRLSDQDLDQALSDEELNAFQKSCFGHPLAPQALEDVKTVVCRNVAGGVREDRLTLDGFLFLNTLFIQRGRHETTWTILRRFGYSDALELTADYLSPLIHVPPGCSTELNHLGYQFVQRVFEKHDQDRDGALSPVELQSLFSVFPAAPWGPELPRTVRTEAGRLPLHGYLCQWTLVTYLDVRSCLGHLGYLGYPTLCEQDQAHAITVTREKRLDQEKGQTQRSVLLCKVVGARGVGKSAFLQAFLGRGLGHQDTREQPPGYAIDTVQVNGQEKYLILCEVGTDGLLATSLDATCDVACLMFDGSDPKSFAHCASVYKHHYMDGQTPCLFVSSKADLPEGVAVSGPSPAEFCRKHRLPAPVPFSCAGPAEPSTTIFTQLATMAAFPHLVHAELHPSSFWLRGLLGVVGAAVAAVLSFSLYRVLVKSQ
UniProt Q8IYT4: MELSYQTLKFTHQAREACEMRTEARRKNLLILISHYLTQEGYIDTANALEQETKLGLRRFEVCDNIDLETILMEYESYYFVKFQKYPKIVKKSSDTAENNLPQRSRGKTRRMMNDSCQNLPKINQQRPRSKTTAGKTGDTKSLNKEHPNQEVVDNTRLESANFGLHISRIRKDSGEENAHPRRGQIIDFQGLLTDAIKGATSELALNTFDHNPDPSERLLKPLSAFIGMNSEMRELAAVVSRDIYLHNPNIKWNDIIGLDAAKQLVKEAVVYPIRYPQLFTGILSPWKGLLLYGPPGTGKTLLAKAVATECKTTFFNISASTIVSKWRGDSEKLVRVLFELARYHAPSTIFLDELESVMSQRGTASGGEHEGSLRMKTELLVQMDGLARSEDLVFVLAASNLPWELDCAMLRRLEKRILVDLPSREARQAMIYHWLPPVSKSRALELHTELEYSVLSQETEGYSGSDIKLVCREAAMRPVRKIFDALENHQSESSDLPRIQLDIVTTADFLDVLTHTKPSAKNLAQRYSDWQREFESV
UniProt Q86W54: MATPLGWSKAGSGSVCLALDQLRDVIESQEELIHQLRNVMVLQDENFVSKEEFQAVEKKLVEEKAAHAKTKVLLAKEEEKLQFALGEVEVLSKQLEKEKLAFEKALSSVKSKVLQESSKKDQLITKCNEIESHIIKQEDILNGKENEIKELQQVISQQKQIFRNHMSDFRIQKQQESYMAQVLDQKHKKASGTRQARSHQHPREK
UniProt Q8IWJ2: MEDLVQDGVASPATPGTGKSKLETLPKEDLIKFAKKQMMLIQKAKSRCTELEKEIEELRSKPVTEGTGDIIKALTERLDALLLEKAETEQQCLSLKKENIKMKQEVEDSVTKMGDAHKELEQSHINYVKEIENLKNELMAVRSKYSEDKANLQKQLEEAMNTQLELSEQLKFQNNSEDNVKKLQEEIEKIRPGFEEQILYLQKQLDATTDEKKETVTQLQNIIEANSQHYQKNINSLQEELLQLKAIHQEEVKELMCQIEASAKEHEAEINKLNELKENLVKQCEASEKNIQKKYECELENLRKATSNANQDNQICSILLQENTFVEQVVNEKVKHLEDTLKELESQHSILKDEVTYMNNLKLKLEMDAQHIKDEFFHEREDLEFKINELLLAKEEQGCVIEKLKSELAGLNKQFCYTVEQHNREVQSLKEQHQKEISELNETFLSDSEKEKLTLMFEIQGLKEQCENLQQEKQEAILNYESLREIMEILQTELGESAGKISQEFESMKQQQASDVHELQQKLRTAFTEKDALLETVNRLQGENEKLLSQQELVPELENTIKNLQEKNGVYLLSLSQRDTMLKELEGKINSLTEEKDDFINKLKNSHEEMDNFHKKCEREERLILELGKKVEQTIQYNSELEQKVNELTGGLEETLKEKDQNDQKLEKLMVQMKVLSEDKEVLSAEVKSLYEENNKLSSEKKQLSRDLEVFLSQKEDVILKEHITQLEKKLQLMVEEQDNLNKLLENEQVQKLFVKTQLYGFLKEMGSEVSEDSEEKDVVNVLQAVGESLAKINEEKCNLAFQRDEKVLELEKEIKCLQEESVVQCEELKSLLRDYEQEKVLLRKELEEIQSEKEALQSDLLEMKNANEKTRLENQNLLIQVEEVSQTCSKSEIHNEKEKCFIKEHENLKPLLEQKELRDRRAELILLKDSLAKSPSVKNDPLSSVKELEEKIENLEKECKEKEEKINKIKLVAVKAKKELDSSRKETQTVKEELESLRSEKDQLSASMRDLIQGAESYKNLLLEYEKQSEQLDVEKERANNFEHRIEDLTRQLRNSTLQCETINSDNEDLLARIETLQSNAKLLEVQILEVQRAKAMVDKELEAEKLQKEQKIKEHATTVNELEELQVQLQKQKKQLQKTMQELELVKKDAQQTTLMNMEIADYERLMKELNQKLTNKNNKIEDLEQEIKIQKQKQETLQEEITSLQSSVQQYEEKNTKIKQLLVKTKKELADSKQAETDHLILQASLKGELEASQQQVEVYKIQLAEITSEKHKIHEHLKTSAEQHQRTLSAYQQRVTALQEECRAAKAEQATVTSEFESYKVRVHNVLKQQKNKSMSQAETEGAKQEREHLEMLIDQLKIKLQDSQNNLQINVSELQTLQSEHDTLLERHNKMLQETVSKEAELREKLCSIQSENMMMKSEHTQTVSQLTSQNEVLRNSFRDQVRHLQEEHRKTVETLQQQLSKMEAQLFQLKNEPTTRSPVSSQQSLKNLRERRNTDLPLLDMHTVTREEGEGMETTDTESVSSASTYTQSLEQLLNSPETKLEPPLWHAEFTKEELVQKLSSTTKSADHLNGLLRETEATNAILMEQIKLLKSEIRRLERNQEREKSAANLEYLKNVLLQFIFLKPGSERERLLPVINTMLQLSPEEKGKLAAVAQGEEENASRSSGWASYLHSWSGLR
UniProt Q8IZL8: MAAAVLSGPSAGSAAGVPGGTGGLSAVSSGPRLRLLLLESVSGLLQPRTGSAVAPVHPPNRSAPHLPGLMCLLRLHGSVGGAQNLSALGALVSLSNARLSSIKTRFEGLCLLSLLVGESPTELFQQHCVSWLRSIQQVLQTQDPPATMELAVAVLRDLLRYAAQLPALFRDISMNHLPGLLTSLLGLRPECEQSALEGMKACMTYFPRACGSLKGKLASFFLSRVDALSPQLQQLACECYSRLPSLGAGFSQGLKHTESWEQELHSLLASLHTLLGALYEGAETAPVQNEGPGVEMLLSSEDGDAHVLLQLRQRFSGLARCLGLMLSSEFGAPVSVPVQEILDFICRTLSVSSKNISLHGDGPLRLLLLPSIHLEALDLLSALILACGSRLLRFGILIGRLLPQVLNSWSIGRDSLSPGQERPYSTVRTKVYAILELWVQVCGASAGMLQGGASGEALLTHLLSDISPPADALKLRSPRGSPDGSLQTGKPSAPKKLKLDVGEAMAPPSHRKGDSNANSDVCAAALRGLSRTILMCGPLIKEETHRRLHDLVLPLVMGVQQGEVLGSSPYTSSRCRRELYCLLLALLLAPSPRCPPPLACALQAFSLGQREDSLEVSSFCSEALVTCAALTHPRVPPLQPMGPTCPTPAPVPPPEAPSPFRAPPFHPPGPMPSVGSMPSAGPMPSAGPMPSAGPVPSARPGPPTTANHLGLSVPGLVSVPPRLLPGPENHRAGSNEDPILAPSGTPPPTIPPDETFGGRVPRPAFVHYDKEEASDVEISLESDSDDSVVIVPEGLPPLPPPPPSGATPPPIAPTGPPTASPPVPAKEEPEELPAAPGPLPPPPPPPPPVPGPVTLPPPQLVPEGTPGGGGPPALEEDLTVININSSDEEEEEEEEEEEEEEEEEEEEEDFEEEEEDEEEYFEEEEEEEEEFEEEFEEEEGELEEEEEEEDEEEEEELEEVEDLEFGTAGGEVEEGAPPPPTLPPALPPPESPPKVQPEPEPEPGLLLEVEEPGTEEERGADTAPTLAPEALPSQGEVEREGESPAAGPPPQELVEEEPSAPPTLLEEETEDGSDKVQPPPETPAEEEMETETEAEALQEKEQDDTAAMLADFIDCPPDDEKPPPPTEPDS
UniProt Q86WB0: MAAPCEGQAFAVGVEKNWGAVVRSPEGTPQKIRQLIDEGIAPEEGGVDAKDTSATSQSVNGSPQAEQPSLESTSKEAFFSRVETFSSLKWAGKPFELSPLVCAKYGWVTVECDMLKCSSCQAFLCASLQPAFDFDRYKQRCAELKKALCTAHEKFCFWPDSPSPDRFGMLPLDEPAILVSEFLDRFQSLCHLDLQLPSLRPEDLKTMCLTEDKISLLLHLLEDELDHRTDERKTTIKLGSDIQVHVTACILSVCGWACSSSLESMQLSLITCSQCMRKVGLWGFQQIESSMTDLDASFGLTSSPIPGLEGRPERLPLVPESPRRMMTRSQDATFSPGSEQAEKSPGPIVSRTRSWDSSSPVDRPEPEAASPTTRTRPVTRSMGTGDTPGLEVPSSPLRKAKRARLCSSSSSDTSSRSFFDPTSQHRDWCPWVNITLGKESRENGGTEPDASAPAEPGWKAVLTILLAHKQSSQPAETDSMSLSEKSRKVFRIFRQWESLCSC
UniProt Q86XZ4: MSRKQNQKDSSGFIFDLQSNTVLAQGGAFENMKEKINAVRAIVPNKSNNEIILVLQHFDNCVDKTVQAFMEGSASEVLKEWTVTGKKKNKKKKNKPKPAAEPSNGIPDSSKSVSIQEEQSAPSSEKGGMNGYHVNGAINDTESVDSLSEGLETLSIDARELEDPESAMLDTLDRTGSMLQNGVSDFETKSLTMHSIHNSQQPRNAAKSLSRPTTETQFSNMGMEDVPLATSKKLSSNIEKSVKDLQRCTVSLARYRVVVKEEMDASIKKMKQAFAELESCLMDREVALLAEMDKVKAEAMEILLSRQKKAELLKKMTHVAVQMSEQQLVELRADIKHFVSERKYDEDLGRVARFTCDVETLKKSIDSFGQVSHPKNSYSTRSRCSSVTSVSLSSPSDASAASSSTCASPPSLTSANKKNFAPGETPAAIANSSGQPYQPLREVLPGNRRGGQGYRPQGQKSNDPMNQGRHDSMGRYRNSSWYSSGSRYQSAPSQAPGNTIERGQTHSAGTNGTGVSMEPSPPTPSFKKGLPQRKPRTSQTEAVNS
UniProt Q86Y13: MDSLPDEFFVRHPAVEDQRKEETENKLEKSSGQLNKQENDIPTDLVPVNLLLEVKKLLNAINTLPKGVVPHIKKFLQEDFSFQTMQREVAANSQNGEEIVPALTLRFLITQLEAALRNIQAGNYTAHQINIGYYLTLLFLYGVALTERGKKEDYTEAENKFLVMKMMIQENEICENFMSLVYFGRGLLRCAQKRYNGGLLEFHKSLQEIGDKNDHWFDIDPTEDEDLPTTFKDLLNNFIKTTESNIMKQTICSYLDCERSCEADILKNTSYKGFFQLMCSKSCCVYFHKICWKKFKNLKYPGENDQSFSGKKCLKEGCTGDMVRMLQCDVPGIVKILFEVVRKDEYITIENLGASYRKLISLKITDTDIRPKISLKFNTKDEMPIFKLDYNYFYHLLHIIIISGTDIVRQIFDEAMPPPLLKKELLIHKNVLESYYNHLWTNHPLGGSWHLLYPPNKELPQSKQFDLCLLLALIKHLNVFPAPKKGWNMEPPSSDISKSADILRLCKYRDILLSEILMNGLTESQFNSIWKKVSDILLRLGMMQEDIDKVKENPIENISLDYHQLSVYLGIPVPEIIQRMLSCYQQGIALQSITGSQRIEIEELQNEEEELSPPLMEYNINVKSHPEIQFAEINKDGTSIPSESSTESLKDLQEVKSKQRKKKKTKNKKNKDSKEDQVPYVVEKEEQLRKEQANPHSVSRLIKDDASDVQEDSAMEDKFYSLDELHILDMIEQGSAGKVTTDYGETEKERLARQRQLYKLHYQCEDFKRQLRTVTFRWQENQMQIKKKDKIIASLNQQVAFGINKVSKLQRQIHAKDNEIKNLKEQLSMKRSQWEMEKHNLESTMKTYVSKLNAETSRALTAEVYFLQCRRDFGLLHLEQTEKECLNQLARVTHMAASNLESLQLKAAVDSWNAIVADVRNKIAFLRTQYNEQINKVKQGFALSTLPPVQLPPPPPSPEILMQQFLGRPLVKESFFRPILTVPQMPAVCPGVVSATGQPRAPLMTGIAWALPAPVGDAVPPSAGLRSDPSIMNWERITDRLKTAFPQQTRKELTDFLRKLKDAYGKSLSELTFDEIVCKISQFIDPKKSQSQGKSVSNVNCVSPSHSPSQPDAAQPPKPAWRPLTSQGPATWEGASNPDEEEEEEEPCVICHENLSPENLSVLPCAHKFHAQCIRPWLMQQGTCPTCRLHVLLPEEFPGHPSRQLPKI

The source of these data is the supplement of paper PMC12819154, “High-throughput peptide-centric local stability assay extends protein–ligand identification to membrane proteins, tissues and bacteria” (Nature Structural & Molecular Biology, 2025).

Compound in this test: CN[C@@H]1C[C@H]2O[C@@](C)([C@@H]1OC)n1c3ccccc3c3c4c(c5c6ccccc6n2c5c31)C(=O)NC4 [staurosporine]
Kind of test: log2 fold change of tryptic peptide abundance, ligand vs vehicle (limited proteolysis) (log2 ratio); higher = more trypsin-susceptible (destabilized). Conditions: ligand concentration: 20 uM; sample: K562 cleared lysate; digestion: 4 min, 22 C (HT-PELSA RT4min, Orbitrap Astral).
In the case of “UBR2 (peptide sequence: KEESTPNNASTK, peptide start residue: 1262) (UniProt Q8IWV8)”, the log2 fold change is -1.33.
For “RHOT2 (peptide sequence: SCFGHPLAPQALEDVK, peptide start residue: 215) (UniProt Q8IXI1)” the value was 0.14; for “PARP9 (peptide sequence: EIHLVSNEDPTVAAFK, peptide start residue: 274) (UniProt Q8IXQ6)”, 0.322; for “UniProt Q8IYT4 (peptide sequence: GLLLYGPPGTGK, peptide start residue: 289)”, -0.011.
Under “UniProt Q86W54 (peptide sequence: DVIESQEELIHQLR, peptide start residue: 24)” stands -0.732; under “GCC2 (peptide sequence: MGDAHKELEQSHINYVK, peptide start residue: 113) (UniProt Q8IWJ2)”, -0.86; under “PELP1 (peptide sequence: ACMTYFPR, peptide start residue: 201) (UniProt Q8IZL8)”, 0.451.
Under “ZC3HC1 (peptide sequence: DWCPWVNITLGKESR, peptide start residue: 427) (UniProt Q86WB0)” stands -0.418.
For the target “SPATS2 (peptide sequence: YQSAPSQAPGNTIER, peptide start residue: 488) (UniProt Q86XZ4)”, the log2 fold change was -0.322.
With “DZIP3 (peptide sequence: VTTDYGETEKER, peptide start residue: 739) (UniProt Q86Y13)”, the log2 fold change was -0.419.
